# In the supplement of paper PMC8728848:
# The other results are listed elsewhere or left out.
# B1: SAG1 (Toxoplasma gondii), P13664 (protein)
# chain: MSVSLHHFIISSGFLTSMFPKAVRRAVTAGVFAAPTLMSFLRCGVMASDPPLVANQVVTCPDKKSTAAVILTPTENHFTLKCPKTALTEPPTLAYSPNRQICPAGTTSSCTSKAVTLSSLIPEAEDSWWTGDSASLDTAGIKLTVPIEKFPVTTQTFVVGCIKGDDAQSCMVTVTVQARASSVVNNVARCSYGADSTLGPVKLSAEGPTTMTLVCGKDGVKVPQDNNQYCSGTTLTGCNEKSFKDILPKLTENPWQGNASSDKGATLTIKKEAFPAESKSVIIGCTGGSPEKHHCTVKLEFAGAAGSAKSAAGTASHVSIFAMVIGLIGSIAACVA
# Experiments:
# Experiment in all cases: glycan array binding signal (z-score within array); higher = stronger binding
# Conditions in all cases: glycan notation: IUPAC condensed, linker removed
# [1] = molecular target: Gal(b1-4)GlcNAc(a1-6)Gal(b1-4)GlcNAc
# Outline: (§1)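 Glycan array data came from 3228 arrays in the Consortium for Functional Glycomics database, and only arrays with an available protein sequence were kept. Glycan names were put into IUPAC-condensed notation, and columns mapping to the same glycan were averaged. The binding signal is a within-array Z-score, averaged across arrays of one protein sequence run at different concentrations or buffers and across linkers. A negative Z-score can be read as non-binding.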
# [2] = molecular target: Gal(b1-4)GlcNAc(b1-2)Man(a1-3)Man(b1-4)GlcNAc(b1-4)GlcNAc
# Outline: as §1
# [3] = molecular target: Gal(b1-4)GlcNAc(b1-2)Man(a1-3)[Gal(b1-4)GlcNAc(b1-2)Man(a1-6)]Man(b1-4)GlcNAc(b1-4)GlcNAc
# Outline: as §1
# [4] = molecular target: Gal(b1-4)GlcNAc(b1-2)Man(a1-3)[Gal(b1-4)GlcNAc(b1-2)Man(a1-6)]Man(b1-4)GlcNAc(b1-4)[Fuc(a1-6)]GlcNAc
# Outline: as §1
# [5] = molecular target: Gal(b1-4)GlcNAc(b1-2)Man(a1-3)[GlcNAc(b1-2)Man(a1-6)]Man(b1-4)GlcNAc(b1-4)GlcNAc
# Outline: as §1
# [6] = molecular target: Gal(b1-4)GlcNAc(b1-2)Man(a1-3)[Man(a1-6)]Man(b1-4)GlcNAc(b1-4)GlcNAc
# Outline: as §1
# [7] = molecular target: Gal(b1-4)GlcNAc(b1-2)Man(a1-6)Man(b1-4)GlcNAc(b1-4)GlcNAc
# Outline: as §1
# [8] = molecular target: Gal(b1-4)GlcNAc(b1-2)Man(a1-6)[GlcNAc(b1-2)Man(a1-3)]Man(b1-4)GlcNAc(b1-4)GlcNAc
# Outline: as §1
# [9] = molecular target: Gal(b1-4)GlcNAc(b1-2)Man(a1-6)[Man(a1-3)]Man(b1-4)GlcNAc(b1-4)GlcNAc
# Outline: as §1
# [10] = molecular target: Gal(b1-4)GlcNAc(b1-2)[Gal(b1-4)GlcNAc(b1-4)]Man(a1-3)[Gal(b1-4)GlcNAc(b1-2)Man(a1-6)]Man(b1-4)GlcNAc(b1-4)GlcNAc
# Outline: as §1
# [11] = molecular target: Gal(b1-4)GlcNAc(b1-2)[Gal(b1-4)GlcNAc(b1-4)]Man(a1-3)[Gal(b1-4)GlcNAc(b1-2)[Gal(b1-4)GlcNAc(b1-6)]Man(a1-6)]Man(b1-4)GlcNAc(b1-4)GlcNAc
# Outline: as §1
# [12] = molecular target: Gal(b1-4)GlcNAc(b1-3)Gal(b1-3)GlcNAc
# Outline: as §1
# [13] = molecular target: Gal(b1-4)GlcNAc(b1-3)Gal(b1-4)Glc
# Outline: as §1
# [14] = molecular target: Gal(b1-4)GlcNAc(b1-3)Gal(b1-4)GlcNAc
# Outline: as §1
# [15] = molecular target: Gal(b1-4)GlcNAc(b1-3)Gal(b1-4)GlcNAc(b1-3)Gal(b1-4)GlcNAc
# Outline: as §1
# [16] = molecular target: Gal(b1-4)GlcNAc(b1-3)Gal(b1-4)[Fuc(a1-3)]GlcNAc(b1-3)Gal(b1-4)[Fuc(a1-3)]GlcNAc
# Outline: as §1
# [17] = molecular target: Gal(b1-4)GlcNAc(b1-3)GalNAc
# Outline: as §1
# [18] = molecular target: Gal(b1-4)GlcNAc(b1-3)[Gal(b1-4)GlcNAc(b1-6)]Gal(b1-4)GlcNAc
# Outline: as §1
# [19] = molecular target: Gal(b1-4)GlcNAc(b1-3)[Gal(b1-4)GlcNAc(b1-6)]GalNAc
# Outline: as §1
# [20] = molecular target: Gal(b1-4)GlcNAc(b1-3)[GlcNAc(b1-6)]Gal(b1-4)GlcNAc
# Outline: as §1
# [21] = molecular target: Gal(b1-4)GlcNAc(b1-6)Gal(b1-4)GlcNAc
# Outline: as §1
# [22] = molecular target: Gal(b1-4)GlcNAc(b1-6)GalNAc
# Outline: as §1
# [23] = molecular target: Gal(b1-4)GlcNAc(b1-6)[Gal(b1-3)]GalNAc
# Outline: as §1
# Gal3S(b1-3)GalNAc = molecular target: Gal3S(b1-3)GalNAc
# Outline: as §1
# Gal3S(b1-3)GlcNAc = molecular target: Gal3S(b1-3)GlcNAc
# Outline: as §1
# [24] = molecular target: Gal3S(b1-3)[Fuc(a1-4)]GlcNAc
# Outline: as §1
# Gal3S(b1-4)Glc = molecular target: Gal3S(b1-4)Glc
# Outline: as §1
# Gal3S(b1-4)Glc6S = molecular target: Gal3S(b1-4)Glc6S
# Outline: as §1
# Gal3S(b1-4)GlcNAc = molecular target: Gal3S(b1-4)GlcNAc
# Outline: as §1
# Gal3S(b1-4)GlcNAc6S = molecular target: Gal3S(b1-4)GlcNAc6S
# Outline: as §1
# [25] = molecular target: Gal3S(b1-4)[Fuc(a1-3)]Glc
# Outline: as §1
# [26] = molecular target: Gal3S(b1-4)[Fuc(a1-3)]Glc6S
# Outline: as §1
# Gal3S4S(b1-4)GlcNAc = molecular target: Gal3S4S(b1-4)GlcNAc
# Outline: as §1
# Gal3S6S(b1-4)GlcNAc = molecular target: Gal3S6S(b1-4)GlcNAc
# Outline: as §1
# Gal3S6S(b1-4)GlcNAc6S = molecular target: Gal3S6S(b1-4)GlcNAc6S
# Outline: as §1
# Gal4S(b1-4)GlcNAc = molecular target: Gal4S(b1-4)GlcNAc
# Outline: as §1
# Gal4S6S(b1-4)GlcNAc = molecular target: Gal4S6S(b1-4)GlcNAc
# Outline: as §1
binder,measurement,setting,value
B1,glycan array binding signal (z-score),[1],-0.386
same,glycan array binding signal (z-score),[2],-0.57
same,glycan array binding signal (z-score),[3],-0.331
same,glycan array binding signal (z-score),[4],0.764
same,glycan array binding signal (z-score),[5],0.426
same,glycan array binding signal (z-score),[6],0.531
same,glycan array binding signal (z-score),[7],-0.778
same,glycan array binding signal (z-score),[8],0.184
same,glycan array binding signal (z-score),[9],0.553
same,glycan array binding signal (z-score),[10],0.037
same,glycan array binding signal (z-score),[11],0.028
same,glycan array binding signal (z-score),[12],-0.473
same,glycan array binding signal (z-score),[13],-0.182
same,glycan array binding signal (z-score),[14],-0.435
same,glycan array binding signal (z-score),[15],1.25
same,glycan array binding signal (z-score),[16],0.117
same,glycan array binding signal (z-score),[17],0.77
same,glycan array binding signal (z-score),[18],-0.797
same,glycan array binding signal (z-score),[19],-0.662
same,glycan array binding signal (z-score),[20],-0.296
same,glycan array binding signal (z-score),[21],-0.985
same,glycan array binding signal (z-score),[22],0.63
same,glycan array binding signal (z-score),[23],-0.052
same,glycan array binding signal (z-score),Gal3S(b1-3)GalNAc,-0.961
same,glycan array binding signal (z-score),Gal3S(b1-3)GlcNAc,-0.518
same,glycan array binding signal (z-score),[24],7.52
same,glycan array binding signal (z-score),Gal3S(b1-4)Glc,0.38
same,glycan array binding signal (z-score),Gal3S(b1-4)Glc6S,0.059
same,glycan array binding signal (z-score),Gal3S(b1-4)GlcNAc,-0.166
same,glycan array binding signal (z-score),Gal3S(b1-4)GlcNAc6S,0.782
same,glycan array binding signal (z-score),[25],0.835
same,glycan array binding signal (z-score),[26],0.37
same,glycan array binding signal (z-score),Gal3S4S(b1-4)GlcNAc,0.268
same,glycan array binding signal (z-score),Gal3S6S(b1-4)GlcNAc,0.835
same,glycan array binding signal (z-score),Gal3S6S(b1-4)GlcNAc6S,1.21
same,glycan array binding signal (z-score),Gal4S(b1-4)GlcNAc,0.045
same,glycan array binding signal (z-score),Gal4S6S(b1-4)GlcNAc,-0.448

# 2 successive entries from above, quoted:
binder,measurement,setting,value
B1,glycan array binding signal (z-score),[7],-0.778
same,glycan array binding signal (z-score),[8],0.184
